Data taken from the supplement of paper PMC12823440, “Inhibitors supercharge kinase turnover through native proteolytic circuits” (Nature, 2025).
Some of the results follow. The calls rarely recur for the same compound in another form.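 Kinases, fused to nanoluciferase, were expressed in K562 cells; luminescence was measured every 4 h from 2 to 18 h as percent of control (DMSO = 100%, positive control = 0%). A time point is decreased if signal falls significantly (2 sigma). Hits were called by the authors by a rule that is not shown; the count of time points alone does not decide it.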

By UniProt entry, the sequences of proteins in these tests, tags left out. Where a name states a change or a piece, a line headed by the entry shows the natural chain unless it says otherwise.
UniProt Q9Y616: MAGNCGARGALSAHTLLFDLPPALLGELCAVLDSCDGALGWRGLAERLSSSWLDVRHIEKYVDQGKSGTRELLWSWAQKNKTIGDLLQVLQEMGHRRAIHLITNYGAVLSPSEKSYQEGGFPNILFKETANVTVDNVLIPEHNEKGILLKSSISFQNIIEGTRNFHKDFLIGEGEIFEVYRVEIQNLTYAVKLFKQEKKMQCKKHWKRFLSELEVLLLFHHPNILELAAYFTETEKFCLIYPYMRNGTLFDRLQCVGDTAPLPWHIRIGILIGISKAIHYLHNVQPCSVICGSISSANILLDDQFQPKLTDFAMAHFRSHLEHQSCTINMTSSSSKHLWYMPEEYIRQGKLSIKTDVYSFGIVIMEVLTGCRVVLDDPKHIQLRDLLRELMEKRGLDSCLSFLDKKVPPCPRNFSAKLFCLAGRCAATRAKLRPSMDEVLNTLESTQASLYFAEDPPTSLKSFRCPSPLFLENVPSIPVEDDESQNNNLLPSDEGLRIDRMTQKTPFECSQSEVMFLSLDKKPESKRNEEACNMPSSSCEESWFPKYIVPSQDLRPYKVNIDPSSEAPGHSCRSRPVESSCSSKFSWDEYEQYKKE
UniProt P23458: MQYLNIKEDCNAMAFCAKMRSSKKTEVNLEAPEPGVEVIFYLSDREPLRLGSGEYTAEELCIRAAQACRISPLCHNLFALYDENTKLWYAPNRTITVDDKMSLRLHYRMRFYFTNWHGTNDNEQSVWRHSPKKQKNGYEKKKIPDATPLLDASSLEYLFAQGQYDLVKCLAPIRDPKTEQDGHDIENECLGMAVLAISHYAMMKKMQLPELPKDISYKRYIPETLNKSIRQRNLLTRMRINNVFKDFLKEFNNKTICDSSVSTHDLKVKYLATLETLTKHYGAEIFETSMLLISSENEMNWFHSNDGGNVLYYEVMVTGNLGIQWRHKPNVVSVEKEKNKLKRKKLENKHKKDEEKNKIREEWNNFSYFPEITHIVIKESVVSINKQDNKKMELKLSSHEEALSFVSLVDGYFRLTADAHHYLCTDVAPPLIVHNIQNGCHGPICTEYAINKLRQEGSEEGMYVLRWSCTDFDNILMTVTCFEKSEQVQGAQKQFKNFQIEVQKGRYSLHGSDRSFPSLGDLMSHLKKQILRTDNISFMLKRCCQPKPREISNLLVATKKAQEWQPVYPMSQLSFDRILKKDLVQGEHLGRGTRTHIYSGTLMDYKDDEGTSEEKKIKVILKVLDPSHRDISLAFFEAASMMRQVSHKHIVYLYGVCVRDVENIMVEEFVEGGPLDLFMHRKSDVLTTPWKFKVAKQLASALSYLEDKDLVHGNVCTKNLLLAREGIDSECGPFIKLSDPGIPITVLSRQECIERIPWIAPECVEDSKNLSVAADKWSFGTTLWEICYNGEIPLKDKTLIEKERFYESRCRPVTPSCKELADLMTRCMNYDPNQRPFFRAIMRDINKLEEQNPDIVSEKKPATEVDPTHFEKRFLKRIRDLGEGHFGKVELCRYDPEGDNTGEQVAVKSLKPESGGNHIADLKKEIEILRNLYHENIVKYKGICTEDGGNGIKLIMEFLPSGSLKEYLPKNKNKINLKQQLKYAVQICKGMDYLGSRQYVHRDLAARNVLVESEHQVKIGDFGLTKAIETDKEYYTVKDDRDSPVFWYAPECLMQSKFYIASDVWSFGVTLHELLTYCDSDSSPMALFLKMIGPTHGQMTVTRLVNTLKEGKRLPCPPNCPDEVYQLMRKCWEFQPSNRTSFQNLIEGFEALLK
UniProt P06239: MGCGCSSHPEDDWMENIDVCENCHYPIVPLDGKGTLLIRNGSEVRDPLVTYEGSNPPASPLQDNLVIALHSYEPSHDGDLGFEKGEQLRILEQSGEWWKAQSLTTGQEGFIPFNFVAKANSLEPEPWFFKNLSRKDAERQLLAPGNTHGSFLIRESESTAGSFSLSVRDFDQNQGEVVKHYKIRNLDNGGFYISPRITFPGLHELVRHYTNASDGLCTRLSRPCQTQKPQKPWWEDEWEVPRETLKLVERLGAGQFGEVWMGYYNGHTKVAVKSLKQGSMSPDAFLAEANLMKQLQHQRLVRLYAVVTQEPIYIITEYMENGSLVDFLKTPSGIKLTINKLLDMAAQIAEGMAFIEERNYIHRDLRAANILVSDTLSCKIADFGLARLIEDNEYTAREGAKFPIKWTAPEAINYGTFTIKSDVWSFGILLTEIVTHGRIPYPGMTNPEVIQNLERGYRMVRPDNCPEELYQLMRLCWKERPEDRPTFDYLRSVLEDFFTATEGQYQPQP
UniProt P53667: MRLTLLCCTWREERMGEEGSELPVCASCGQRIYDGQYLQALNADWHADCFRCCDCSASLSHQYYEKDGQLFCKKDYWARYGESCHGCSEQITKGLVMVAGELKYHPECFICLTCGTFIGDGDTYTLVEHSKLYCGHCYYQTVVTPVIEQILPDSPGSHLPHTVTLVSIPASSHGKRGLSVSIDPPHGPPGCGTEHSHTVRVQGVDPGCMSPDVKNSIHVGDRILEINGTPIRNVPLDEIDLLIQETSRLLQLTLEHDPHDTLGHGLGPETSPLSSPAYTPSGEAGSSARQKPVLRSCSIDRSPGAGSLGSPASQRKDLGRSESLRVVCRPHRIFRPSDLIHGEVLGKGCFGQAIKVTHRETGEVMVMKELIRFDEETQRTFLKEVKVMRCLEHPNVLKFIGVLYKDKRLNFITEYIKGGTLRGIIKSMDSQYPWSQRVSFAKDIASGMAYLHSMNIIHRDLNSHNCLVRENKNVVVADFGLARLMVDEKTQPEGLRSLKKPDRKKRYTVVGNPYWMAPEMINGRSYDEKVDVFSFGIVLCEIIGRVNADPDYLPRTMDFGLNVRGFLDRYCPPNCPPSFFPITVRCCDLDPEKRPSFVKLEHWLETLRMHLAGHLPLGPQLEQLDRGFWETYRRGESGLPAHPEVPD
UniProt P53671: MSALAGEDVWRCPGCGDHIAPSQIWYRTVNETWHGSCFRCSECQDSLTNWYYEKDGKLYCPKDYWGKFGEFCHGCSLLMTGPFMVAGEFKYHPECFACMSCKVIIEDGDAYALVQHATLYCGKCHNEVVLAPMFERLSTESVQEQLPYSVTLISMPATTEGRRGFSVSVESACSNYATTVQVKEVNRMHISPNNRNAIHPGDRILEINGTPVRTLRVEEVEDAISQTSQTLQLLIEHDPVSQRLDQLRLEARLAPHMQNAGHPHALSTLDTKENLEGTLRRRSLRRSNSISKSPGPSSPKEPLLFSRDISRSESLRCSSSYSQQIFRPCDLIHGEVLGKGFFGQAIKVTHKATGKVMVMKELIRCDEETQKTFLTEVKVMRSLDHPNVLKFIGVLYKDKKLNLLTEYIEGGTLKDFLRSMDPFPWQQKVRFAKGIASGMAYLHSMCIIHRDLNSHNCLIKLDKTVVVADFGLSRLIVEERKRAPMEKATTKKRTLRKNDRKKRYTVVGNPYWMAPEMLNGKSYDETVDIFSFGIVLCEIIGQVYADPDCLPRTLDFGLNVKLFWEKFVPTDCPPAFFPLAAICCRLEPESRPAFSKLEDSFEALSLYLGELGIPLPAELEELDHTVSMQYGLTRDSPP
UniProt Q8IWU2: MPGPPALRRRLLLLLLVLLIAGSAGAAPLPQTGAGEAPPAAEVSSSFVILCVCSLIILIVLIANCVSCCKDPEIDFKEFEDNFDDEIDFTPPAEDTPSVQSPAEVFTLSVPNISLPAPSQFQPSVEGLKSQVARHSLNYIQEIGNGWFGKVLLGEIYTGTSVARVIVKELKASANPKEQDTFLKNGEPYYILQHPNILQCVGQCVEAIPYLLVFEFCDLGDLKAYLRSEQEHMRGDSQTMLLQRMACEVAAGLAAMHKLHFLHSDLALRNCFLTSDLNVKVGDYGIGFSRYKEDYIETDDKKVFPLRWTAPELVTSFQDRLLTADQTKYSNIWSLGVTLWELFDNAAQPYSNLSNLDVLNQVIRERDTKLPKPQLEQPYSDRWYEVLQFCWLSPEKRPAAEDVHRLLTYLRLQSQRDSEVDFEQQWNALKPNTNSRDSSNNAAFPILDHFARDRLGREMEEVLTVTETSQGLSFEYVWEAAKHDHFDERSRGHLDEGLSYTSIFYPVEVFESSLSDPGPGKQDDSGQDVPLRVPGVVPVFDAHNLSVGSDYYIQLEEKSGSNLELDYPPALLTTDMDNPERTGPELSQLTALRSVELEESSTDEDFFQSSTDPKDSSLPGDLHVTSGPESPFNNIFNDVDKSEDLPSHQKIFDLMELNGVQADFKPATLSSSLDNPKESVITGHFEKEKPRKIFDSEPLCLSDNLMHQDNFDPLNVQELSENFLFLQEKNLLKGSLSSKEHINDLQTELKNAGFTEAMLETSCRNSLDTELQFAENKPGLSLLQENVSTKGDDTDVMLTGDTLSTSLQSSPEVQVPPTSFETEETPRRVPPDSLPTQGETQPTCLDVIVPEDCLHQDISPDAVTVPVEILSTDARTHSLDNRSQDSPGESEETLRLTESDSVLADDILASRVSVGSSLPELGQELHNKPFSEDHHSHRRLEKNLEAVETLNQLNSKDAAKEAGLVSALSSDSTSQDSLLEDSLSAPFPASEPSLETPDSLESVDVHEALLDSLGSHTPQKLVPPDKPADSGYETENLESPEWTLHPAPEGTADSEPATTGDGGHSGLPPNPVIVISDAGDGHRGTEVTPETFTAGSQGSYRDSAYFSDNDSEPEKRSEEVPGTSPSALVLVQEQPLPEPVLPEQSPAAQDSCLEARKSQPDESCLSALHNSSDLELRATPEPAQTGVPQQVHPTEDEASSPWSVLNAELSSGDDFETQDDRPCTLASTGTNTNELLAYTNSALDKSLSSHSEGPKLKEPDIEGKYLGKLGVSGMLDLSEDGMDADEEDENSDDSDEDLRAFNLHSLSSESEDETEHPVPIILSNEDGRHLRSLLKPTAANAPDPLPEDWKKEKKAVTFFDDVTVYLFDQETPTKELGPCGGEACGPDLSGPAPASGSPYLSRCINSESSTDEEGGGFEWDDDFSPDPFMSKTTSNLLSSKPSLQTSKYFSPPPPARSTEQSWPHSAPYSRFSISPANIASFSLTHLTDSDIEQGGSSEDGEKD
UniProt P07948: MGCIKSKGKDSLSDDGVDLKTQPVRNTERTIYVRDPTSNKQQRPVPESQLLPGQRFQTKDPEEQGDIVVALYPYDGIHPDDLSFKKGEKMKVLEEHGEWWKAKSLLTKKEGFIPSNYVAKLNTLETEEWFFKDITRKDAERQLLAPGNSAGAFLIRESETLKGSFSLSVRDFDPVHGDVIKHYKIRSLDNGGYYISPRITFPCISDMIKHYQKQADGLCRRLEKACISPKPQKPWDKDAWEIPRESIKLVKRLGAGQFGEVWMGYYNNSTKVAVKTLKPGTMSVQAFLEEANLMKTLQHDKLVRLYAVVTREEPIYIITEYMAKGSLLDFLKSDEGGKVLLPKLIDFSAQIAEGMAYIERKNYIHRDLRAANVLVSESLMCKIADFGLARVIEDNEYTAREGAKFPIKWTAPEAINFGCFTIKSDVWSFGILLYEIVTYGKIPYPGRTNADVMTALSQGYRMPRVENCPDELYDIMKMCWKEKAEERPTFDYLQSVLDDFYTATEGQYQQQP
UniProt Q12851: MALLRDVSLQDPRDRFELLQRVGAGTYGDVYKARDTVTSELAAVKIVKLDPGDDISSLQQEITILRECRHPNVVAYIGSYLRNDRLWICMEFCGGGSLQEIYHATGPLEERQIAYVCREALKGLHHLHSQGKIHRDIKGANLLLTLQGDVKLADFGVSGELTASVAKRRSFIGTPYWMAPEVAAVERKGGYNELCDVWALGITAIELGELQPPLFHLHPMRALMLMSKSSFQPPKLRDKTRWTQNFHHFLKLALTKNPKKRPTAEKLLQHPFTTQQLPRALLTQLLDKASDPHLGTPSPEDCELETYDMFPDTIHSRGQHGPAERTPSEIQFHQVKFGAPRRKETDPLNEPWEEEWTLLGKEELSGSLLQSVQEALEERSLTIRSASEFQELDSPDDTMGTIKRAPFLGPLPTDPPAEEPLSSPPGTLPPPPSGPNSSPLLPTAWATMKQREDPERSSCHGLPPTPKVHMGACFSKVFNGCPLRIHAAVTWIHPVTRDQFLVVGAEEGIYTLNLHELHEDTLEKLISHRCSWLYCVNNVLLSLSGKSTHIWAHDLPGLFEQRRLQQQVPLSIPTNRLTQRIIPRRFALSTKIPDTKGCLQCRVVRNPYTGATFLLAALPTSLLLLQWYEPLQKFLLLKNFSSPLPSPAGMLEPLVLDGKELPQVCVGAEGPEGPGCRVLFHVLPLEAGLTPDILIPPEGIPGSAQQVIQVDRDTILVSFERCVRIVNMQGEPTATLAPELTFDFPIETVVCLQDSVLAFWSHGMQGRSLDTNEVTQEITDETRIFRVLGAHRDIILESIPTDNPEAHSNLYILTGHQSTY

Tests used:
Assay in all cases: kinase-Nluc reporter destabilization hit call (1 = scored as downregulated) (binary); higher = compound decreases kinase abundance
Settings in all cases: K562; 2-18 h
IRAK3 = IRAK3 (UniProt Q9Y616)
JAK1 = JAK1 (UniProt P23458)
LCK = LCK (UniProt P06239)
LIMK1 = LIMK1 (UniProt P53667)
LIMK2 = LIMK2 (UniProt P53671)
LMTK2 = LMTK2 (UniProt Q8IWU2)
LYN = LYN (UniProt P07948)
MAP2K1 = MAP2K1 (UniProt Q02750)
MAP2K2 = MAP2K2 (UniProt P36507)
MAP4K2 = MAP4K2 (UniProt Q12851)

Measured: kinase-Nluc reporter destabilization hit call

CC(C)n1cnc2c(NCc3cccc(C(F)(F)F)c3)ncnc21 [Longdaysin] (10 µM)
inactive: IRAK3 = 0 | JAK1 = 0 | LCK 0 | LIMK1 = 0 | LIMK2 = 0 | LMTK2 = 0 | LYN 0 | MAP2K1 = 0 | MAP2K2 = 0 | MAP4K2 = 0

COc1c(CC=C(C)C)c(O)cc2oc(=O)c(-c3ccc(O)cc3O)cc12 [Glycycoumarin] (10 µM)
inactive: IRAK3 = 0 | JAK1 = 0 | LCK 0 | LIMK1 = 0 | LIMK2 = 0 | LMTK2 = 0 | LYN 0 | MAP2K1 = 0 | MAP2K2 = 0 | MAP4K2 = 0

COc1ccc2c(C(=O)Nc3ccc(NC(=O)c4nn(C5CCN(C(=O)CC(C)(C)C#N)CC5)c5ccc(F)cc45)cc3Cl)cnn2c1 [Src Inhibitor 3] (2.5 µM)
active: LYN 1
inactive: IRAK3 = 0 | JAK1 = 0 | LIMK1 = 0 | LIMK2 = 0 | LMTK2 = 0 | MAP2K1 = 0 | MAP2K2 = 0 | MAP4K2 = 0

Fetched one by one from above, 2 records:
CC(C)n1cnc2c(NCc3cccc(C(F)(F)F)c3)ncnc21 [Longdaysin] (10 µM)
inactive: IRAK3 = 0 | JAK1 = 0 | LCK 0 | LIMK1 = 0 | LIMK2 = 0 | LMTK2 = 0 | LYN 0 | MAP2K1 = 0 | MAP2K2 = 0 | MAP4K2 = 0

COc1c(CC=C(C)C)c(O)cc2oc(=O)c(-c3ccc(O)cc3O)cc12 [Glycycoumarin] (10 µM)
inactive: IRAK3 = 0 | JAK1 = 0 | LCK 0 | LIMK1 = 0 | LIMK2 = 0 | LMTK2 = 0 | LYN 0 | MAP2K1 = 0 | MAP2K2 = 0 | MAP4K2 = 0

Next part.

CC(C)CC(=O)Nc1n[nH]c2c1CN(C(=O)C1CCN(C)CC1)C2(C)C (2.5 µM)
inactive: IRAK3 = 0 | JAK1 = 0 | LIMK1 = 0 | LIMK2 = 0 | LMTK2 = 0 | LYN 0 | MAP2K1 = 0 | MAP2K2 = 0 | MAP4K2 = 0

COc1cc2c(Nc3ccc(NC(=O)c4ccccc4)cc3)ncnc2cc1OCCCN1CCOCC1 (10 µM)
inactive: IRAK3 = 0 | JAK1 = 0 | LIMK1 = 0 | LIMK2 = 0 | LMTK2 = 0 | LYN 0 | MAP2K1 = 0 | MAP2K2 = 0 | MAP4K2 = 0

CN(c1ncccc1CNc1nc(Nc2ccc3c(c2)CC(=O)N3)ncc1C(F)(F)F)S(C)(=O)=O (2.5 µM)
inactive: IRAK3 = 0 | JAK1 = 0 | LIMK1 = 0 | LIMK2 = 0 | LMTK2 = 0 | LYN 0 | MAP2K1 = 0 | MAP2K2 = 0 | MAP4K2 = 0

Cc1ccc2c(Nc3ccc(Cl)cc3)nccc2c1Nc1ncccc1-c1ncnc2nc[nH]c12 [Raf inhibitor 1] (2.5 µM)
inactive: IRAK3 = 0 | JAK1 = 0 | LIMK1 = 0 | LIMK2 = 0 | LMTK2 = 0 | LYN 0 | MAP2K1 = 0 | MAP2K2 = 0 | MAP4K2 = 0

O=C(O)CCNC(=O)c1ccc(/N=N/c2ccc(O)c(C(=O)O)c2)cc1 [Balsalazide] (10 µM)
inactive: IRAK3 = 0 | JAK1 = 0 | LCK 0 | LIMK1 = 0 | LIMK2 = 0 | LMTK2 = 0 | LYN 0 | MAP2K1 = 0 | MAP2K2 = 0 | MAP4K2 = 0

O=C(NOC[C@H](O)CO)c1ccc(F)c(F)c1Nc1ccc(I)cc1F (2.5 µM)
inactive: IRAK3 = 0 | JAK1 = 0 | LCK 0 | LIMK1 = 0 | LIMK2 = 0 | LMTK2 = 0 | LYN 0 | MAP2K2 = 0 | MAP4K2 = 0

O=c1cc(N2CCOCC2)oc2c(-c3ccccc3)cccc12 (10 µM)
inactive: IRAK3 = 0 | JAK1 = 0 | LIMK1 = 0 | LIMK2 = 0 | LMTK2 = 0 | LYN 0 | MAP2K1 = 0 | MAP2K2 = 0 | MAP4K2 = 0

Cc1cc(N2CCOCC2)cc2[nH]c(-c3c(NC[C@@H](O)c4cccc(Cl)c4)cc[nH]c3=O)nc12 (10 µM)
inactive: IRAK3 = 0 | JAK1 = 0 | LIMK1 = 0 | LIMK2 = 0 | LMTK2 = 0 | LYN 0 | MAP2K1 = 0 | MAP2K2 = 0 | MAP4K2 = 0

CC(C)(C)n1nc(Cc2cccc3ccccc23)c2c(N)ncnc21 (10 µM)
inactive: IRAK3 = 0 | JAK1 = 0 | LIMK1 = 0 | LIMK2 = 0 | LMTK2 = 0 | LYN 0 | MAP2K1 = 0 | MAP2K2 = 0 | MAP4K2 = 0

Cc1nc(-c2cnc(NC(C)C)n(C)c2=O)ccc1Oc1ccnc(-c2cnn(C)c2)c1 (2.5 µM)
inactive: IRAK3 = 0 | JAK1 = 0 | LIMK1 = 0 | LIMK2 = 0 | LMTK2 = 0 | LYN 0 | MAP2K1 = 0 | MAP2K2 = 0 | MAP4K2 = 0

O=c1oc2ccccc2c(O)c1Cc1c(O)c2ccccc2oc1=O [Dicoumarol] (10 µM)
inactive: IRAK3 = 0 | JAK1 = 0 | LIMK1 = 0 | LIMK2 = 0 | LMTK2 = 0 | LYN 0 | MAP2K1 = 0 | MAP2K2 = 0 | MAP4K2 = 0

CCOc1ccn(-c2ccc(F)cc2)c(=O)c1C(=O)Nc1ccc(Oc2ccnc(N)c2Cl)c(F)c1 (10 µM)
inactive: IRAK3 = 0 | JAK1 = 0 | LIMK1 = 0 | LIMK2 = 0 | LMTK2 = 0 | LYN 0 | MAP2K1 = 0 | MAP2K2 = 0 | MAP4K2 = 0

COc1cc(F)cc([C@@H](CO)NC(=O)[C@@H](C)N2Cc3ccc(-c4nc(NC5CCOCC5)ncc4Cl)cc3C2=O)c1 [ERK1/2 inhibitor 2] (10 µM)
inactive: IRAK3 = 0 | JAK1 = 0 | LCK 0 | LIMK1 = 0 | LIMK2 = 0 | LMTK2 = 0 | LYN 0 | MAP2K1 = 0 | MAP2K2 = 0 | MAP4K2 = 0

CCOc1cc2ncc(-c3cc(N)nc(F)c3)n2cc1S(=O)(=O)C(C)(C)C (10 µM)
inactive: IRAK3 = 0 | JAK1 = 0 | LCK 0 | LIMK1 = 0 | LIMK2 = 0 | LMTK2 = 0 | LYN 0 | MAP2K1 = 0 | MAP2K2 = 0 | MAP4K2 = 0

Cc1cc(C)c(/C=C2\C(=O)Nc3ccccc32)[nH]1 [Semaxinib] (10 µM)
inactive: IRAK3 = 0 | JAK1 = 0 | LIMK1 = 0 | LIMK2 = 0 | LMTK2 = 0 | LYN 0 | MAP2K1 = 0 | MAP2K2 = 0 | MAP4K2 = 0

Cc1ccc(S(=O)(=O)Nc2nc3ccccc3nc2Nc2ccc3nsnc3c2)cc1 [Pilaralisib analogue] (10 µM)
inactive: IRAK3 = 0 | JAK1 = 0 | LCK 0 | LIMK2 = 0 | LMTK2 = 0 | LYN 0 | MAP2K1 = 0 | MAP2K2 = 0 | MAP4K2 = 0
